Values from PubChem BioAssay AID504774 (Drosophila RNAi Screening Center, 2011)

Assay: 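Fly genes whose loss alters survival after alkylation damage to DNA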 (primary screen)
Cell system: Drosophila Kc167 cells
Knock-down reagent: long dsRNA against Drosophila genes, about 0.25 µg dsRNA per well
Timing: about 6 days: 3 days knock-down, then 3 days with or without MMS
Conditions: methyl methanesulphonate 0.004% (w/v) for 3 days after knock-down
Measured: 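Viability in wells given MMS, read as ATP luminescence, normalised by quantiles plate by plate and averaged across replicates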
Scale: mean viability with MMS and viability with MMS: higher = more surviving cells after MMS
The screen tested about 23,000 reagents; below is a random part of those with a known target gene and a result. 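Values are quantile-normalised luminescence on an arbitrary scale; higher means more cells surviving MMS.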 Reagents against one gene are numbered here. Names joined by + are all predicted targets of the reagent.

| Target gene | dsRNA no. | mean viability with MMS | viability with MMS, replicate 1 | viability with MMS, replicate 2 |
| --- | --- | --- | --- | --- |
| beat-VI | 1 | 3.65e6 | 4.18e6 | 4.10e6 |
| beat-VI | 2 | 3.61e6 | 4.09e6 | 4.09e6 |
| Fer3 | 1 | 3.56e6 | 4.00e6 | 4.08e6 |
| spab | 1 | 3.69e6 | 4.10e6 | 4.15e6 |
| CG14777 | 1 | 3.74e6 | 4.15e6 | 4.28e6 |
| Sox100B | 1 | 3.44e6 | 3.85e6 | 3.90e6 |
| Sox100B | 2 | 4.13e6 | 4.76e6 | 5.04e6 |
| PH4alphaPV | 1 | 3.51e6 | 4.07e6 | 3.90e6 |
| sPLA2 | 1 | 3.53e6 | 3.98e6 | 4.04e6 |
| ste24b | 1 | 3.56e6 | 3.99e6 | 4.07e6 |
| reb | 1 | 3.46e6 | 3.95e6 | 3.78e6 |
| Atxn7 | 1 | 3.26e6 | 3.65e6 | 3.59e6 |
| Atxn7 | 2 | 3.62e6 | 4.13e6 | 4.10e6 |
| lncRNA:sphinx + ATPsynF | 1 | 3.39e6 | 3.77e6 | 3.92e6 |
| CG31262 | 1 | 3.29e6 | 3.84e6 | 3.69e6 |
| Cnx99A + Cnx14D | 1 | 3.64e6 | 4.02e6 | 4.22e6 |
| Taf9 | 1 | 3.49e6 | 4.02e6 | 3.89e6 |
| Gr64c | 1 | 3.52e6 | 3.98e6 | 3.99e6 |
| Nop60B | 1 | 3.39e6 | 3.67e6 | 3.72e6 |
| CG32751 | 1 | 3.35e6 | 3.79e6 | 3.91e6 |
| CG42542 | 1 | 3.59e6 | 3.95e6 | 4.23e6 |
| CG42542 | 2 | 3.45e6 | 3.99e6 | 3.87e6 |
| Eig71Ea | 1 | 3.65e6 | 4.02e6 | 4.21e6 |
| CG42399 | 1 | 3.48e6 | 3.90e6 | 3.99e6 |
| CG42399 | 2 | 3.48e6 | 3.93e6 | 3.95e6 |
| shn | 1 | 3.48e6 | 4.01e6 | 3.93e6 |
| shn | 2 | 3.57e6 | 4.03e6 | 4.07e6 |
| sdk | 1 | 3.50e6 | 3.96e6 | 3.98e6 |
| ND-49L | 1 | 3.33e6 | 3.73e6 | 3.73e6 |
| Hinfp | 1 | 3.51e6 | 3.99e6 | 3.99e6 |
| Psn | 1 | 3.69e6 | 4.15e6 | 4.14e6 |
| Orco | 1 | 3.57e6 | 4.01e6 | 4.11e6 |
| CG4593 | 1 | 3.47e6 | 3.91e6 | 3.98e6 |
| Cpr47Ef | 1 | 3.49e6 | 3.97e6 | 3.74e6 |
| Cpr47Ef | 2 | 3.42e6 | 3.95e6 | 3.88e6 |
| Agpat3 | 1 | 3.57e6 | 4.13e6 | 3.96e6 |
| CG33107 | 1 | 3.53e6 | 3.93e6 | 4.06e6 |
| tst + CG10375 | 1 | 3.39e6 | 3.93e6 | 3.74e6 |
| CG31693 | 1 | 3.56e6 | 4.11e6 | 3.96e6 |
| CR32745 | 1 | 3.44e6 | 3.73e6 | 4.08e6 |
| CG14109 | 1 | 3.64e6 | 4.03e6 | 4.18e6 |
| l(2)37Bb | 1 | 3.77e6 | 4.00e6 | 3.82e6 |
| CG3285 | 1 | 3.54e6 | 4.16e6 | 3.86e6 |
| CG15047 | 1 | 3.04e6 | 3.51e6 | 3.51e6 |
| CG15047 | 2 | 3.45e6 | 3.98e6 | 3.90e6 |
| Or88a | 1 | 3.32e6 | 3.73e6 | 3.78e6 |
| mib2 | 1 | 3.42e6 | 3.86e6 | 3.84e6 |
| CG34353 | 1 | 3.60e6 | 3.93e6 | 4.23e6 |
| CG34353 | 2 | 3.74e6 | 4.23e6 | 4.21e6 |
| CG34353 | 3 | 3.59e6 | 4.00e6 | 4.13e6 |
| CG34353 | 4 | 3.69e6 | 4.22e6 | 4.12e6 |
| CG34353 | 5 | 3.54e6 | 4.02e6 | 4.00e6 |
| alpha-Catr | 1 | 3.47e6 | 3.97e6 | 3.89e6 |
| CR11023 | 1 | 3.46e6 | 3.86e6 | 3.96e6 |
| CtBP | 1 | 3.38e6 | 3.72e6 | 3.93e6 |
| ppk17 | 1 | 3.52e6 | 4.01e6 | 3.99e6 |
| niki | 1 | 3.57e6 | 3.92e6 | 4.18e6 |
| CG31680 | 1 | 3.68e6 | 4.12e6 | 4.14e6 |
| Prosbeta2 | 1 | 3.25e6 | 3.70e6 | 3.65e6 |
| CG31676 | 1 | 3.61e6 | 4.02e6 | 4.17e6 |
| fig | 1 | 3.48e6 | 4.09e6 | 3.76e6 |
| Ak2 | 1 | 3.49e6 | 4.03e6 | 3.86e6 |
| spz4 | 1 | 3.50e6 | 3.91e6 | 4.03e6 |
| Gr93c | 1 | 3.59e6 | 4.01e6 | 4.13e6 |
| glu | 1 | 3.40e6 | 3.55e6 | 4.09e6 |
| HP1D3csd | 1 | 3.46e6 | 3.96e6 | 3.92e6 |
| COX1 (retired record) | 1 | 3.54e6 | 4.02e6 | 4.03e6 |
| BBS4 | 1 | 1.80e6 | 3.75e6 | – |

9 entries from above, reformatted.
shn #1
- mean viability with MMS: 3.48e6
- viability with MMS, replicate 1: 4.01e6
- viability with MMS, replicate 2: 3.93e6

shn #2
- mean viability with MMS: 3.57e6
- viability with MMS, replicate 1: 4.03e6
- viability with MMS, replicate 2: 4.07e6

sdk
- mean viability with MMS: 3.50e6
- viability with MMS, replicate 1: 3.96e6
- viability with MMS, replicate 2: 3.98e6

ND-49L
- mean viability with MMS: 3.33e6
- viability with MMS, replicate 1: 3.73e6
- viability with MMS, replicate 2: 3.73e6

Hinfp
- mean viability with MMS: 3.51e6
- viability with MMS, replicate 1: 3.99e6
- viability with MMS, replicate 2: 3.99e6

Psn
- mean viability with MMS: 3.69e6
- viability with MMS, replicate 1: 4.15e6
- viability with MMS, replicate 2: 4.14e6

Orco
- mean viability with MMS: 3.57e6
- viability with MMS, replicate 1: 4.01e6
- viability with MMS, replicate 2: 4.11e6

CG4593
- mean viability with MMS: 3.47e6
- viability with MMS, replicate 1: 3.91e6
- viability with MMS, replicate 2: 3.98e6

Cpr47Ef #1
- mean viability with MMS: 3.49e6
- viability with MMS, replicate 1: 3.97e6
- viability with MMS, replicate 2: 3.74e6
